{"source": "PubChem BioAssay AID720505 (Drosophila RNAi Screening Center, 2013)", "test": "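Genes needed for store-operated calcium entry in fly cells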 (primary screen)", "cell system": "Drosophila S2R+ cells", "reagents": "long dsRNA against Drosophila genes", "treatment": "thapsigargin (2 µM) in calcium-free buffer to empty internal stores, then 2 mM calcium added back", "measured": "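Fluo-4 signal in 384-well plates read on a FLIPR after thapsigargin (2 µM, calcium-free) store depletion and 2 mM calcium add-back; unnormalised mean endpoint per well; screen run twice, selected wells retested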", "scale": "calcium signal and retest calcium signal: higher = more calcium entry after store depletion", "active means": "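Knock-downs counted as hits when calcium entry dropped relative to STIM1 positive and Rho1 negative controls present on each plate; roughly 1500 genes called, with reductions of differing size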", "meaning of the calls": "active = called as lowering calcium entry; inactive = not called", "note": "In all, the deposit lists about 20,000 reagents; below is an unselected part of those with a known target gene and a result. In the full data, about 2,100 (10%) were called active. 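Raw plate signals without normalisation; calls rest on control-based scores that were not deposited; replicate 2 separates called from uncalled poorly.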 Entries without a mark were called inactive. Names joined by + are all predicted targets of the reagent. The record does not give: the amount of reagent, the time to read-out."}
{"predicted target":"Klc","calcium signal, replicate 1":96.5,"calcium signal, replicate 2":110}
{"predicted target":"CG14565","calcium signal, replicate 1":114,"calcium signal, replicate 2":177}
{"predicted target":"gl","calcium signal, replicate 1":249,"calcium signal, replicate 2":181}
{"predicted target":"Phae2","calcium signal, replicate 1":104,"calcium signal, replicate 2":105}
{"predicted target":"Trxr2","calcium signal, replicate 1":89.6,"calcium signal, replicate 2":112}
{"predicted target":"c12.1","calcium signal, replicate 1":84.4,"calcium signal, replicate 2":88}
{"predicted target":"GlyT","calcium signal, replicate 1":108,"calcium signal, replicate 2":225}

A run of entries from the list above, for reference:
{"predicted target":"gl","calcium signal, replicate 1":249,"calcium signal, replicate 2":181}
{"predicted target":"Phae2","calcium signal, replicate 1":104,"calcium signal, replicate 2":105}

The listing continues.
{"predicted target":"CG33269","calcium signal, replicate 1":119,"calcium signal, replicate 2":143}
{"predicted target":"CG15905","calcium signal, replicate 1":168,"calcium signal, replicate 2":167}
{"predicted target":"mRpS2","calcium signal, replicate 1":194,"calcium signal, replicate 2":108}
{"predicted target":"asRNA:CR43463 + Pgant35A","calcium signal, replicate 1":101,"calcium signal, replicate 2":86.7,"retest calcium signal, replicate 1":108,"retest calcium signal, replicate 2":141}
{"predicted target":"pygo","calcium signal, replicate 1":69.9,"calcium signal, replicate 2":121}
